Test results: paper PMC7989706
No constants are given. Whether binding was seen depends on the method and setting. Binding seen in cells or lysates may run through a third protein. These calls come from enrichment with a bait or labelling near it, and not all partners need be listed.

The chains behind the UniProt entries cited, without tags or fusion partners.
UniProt P46940: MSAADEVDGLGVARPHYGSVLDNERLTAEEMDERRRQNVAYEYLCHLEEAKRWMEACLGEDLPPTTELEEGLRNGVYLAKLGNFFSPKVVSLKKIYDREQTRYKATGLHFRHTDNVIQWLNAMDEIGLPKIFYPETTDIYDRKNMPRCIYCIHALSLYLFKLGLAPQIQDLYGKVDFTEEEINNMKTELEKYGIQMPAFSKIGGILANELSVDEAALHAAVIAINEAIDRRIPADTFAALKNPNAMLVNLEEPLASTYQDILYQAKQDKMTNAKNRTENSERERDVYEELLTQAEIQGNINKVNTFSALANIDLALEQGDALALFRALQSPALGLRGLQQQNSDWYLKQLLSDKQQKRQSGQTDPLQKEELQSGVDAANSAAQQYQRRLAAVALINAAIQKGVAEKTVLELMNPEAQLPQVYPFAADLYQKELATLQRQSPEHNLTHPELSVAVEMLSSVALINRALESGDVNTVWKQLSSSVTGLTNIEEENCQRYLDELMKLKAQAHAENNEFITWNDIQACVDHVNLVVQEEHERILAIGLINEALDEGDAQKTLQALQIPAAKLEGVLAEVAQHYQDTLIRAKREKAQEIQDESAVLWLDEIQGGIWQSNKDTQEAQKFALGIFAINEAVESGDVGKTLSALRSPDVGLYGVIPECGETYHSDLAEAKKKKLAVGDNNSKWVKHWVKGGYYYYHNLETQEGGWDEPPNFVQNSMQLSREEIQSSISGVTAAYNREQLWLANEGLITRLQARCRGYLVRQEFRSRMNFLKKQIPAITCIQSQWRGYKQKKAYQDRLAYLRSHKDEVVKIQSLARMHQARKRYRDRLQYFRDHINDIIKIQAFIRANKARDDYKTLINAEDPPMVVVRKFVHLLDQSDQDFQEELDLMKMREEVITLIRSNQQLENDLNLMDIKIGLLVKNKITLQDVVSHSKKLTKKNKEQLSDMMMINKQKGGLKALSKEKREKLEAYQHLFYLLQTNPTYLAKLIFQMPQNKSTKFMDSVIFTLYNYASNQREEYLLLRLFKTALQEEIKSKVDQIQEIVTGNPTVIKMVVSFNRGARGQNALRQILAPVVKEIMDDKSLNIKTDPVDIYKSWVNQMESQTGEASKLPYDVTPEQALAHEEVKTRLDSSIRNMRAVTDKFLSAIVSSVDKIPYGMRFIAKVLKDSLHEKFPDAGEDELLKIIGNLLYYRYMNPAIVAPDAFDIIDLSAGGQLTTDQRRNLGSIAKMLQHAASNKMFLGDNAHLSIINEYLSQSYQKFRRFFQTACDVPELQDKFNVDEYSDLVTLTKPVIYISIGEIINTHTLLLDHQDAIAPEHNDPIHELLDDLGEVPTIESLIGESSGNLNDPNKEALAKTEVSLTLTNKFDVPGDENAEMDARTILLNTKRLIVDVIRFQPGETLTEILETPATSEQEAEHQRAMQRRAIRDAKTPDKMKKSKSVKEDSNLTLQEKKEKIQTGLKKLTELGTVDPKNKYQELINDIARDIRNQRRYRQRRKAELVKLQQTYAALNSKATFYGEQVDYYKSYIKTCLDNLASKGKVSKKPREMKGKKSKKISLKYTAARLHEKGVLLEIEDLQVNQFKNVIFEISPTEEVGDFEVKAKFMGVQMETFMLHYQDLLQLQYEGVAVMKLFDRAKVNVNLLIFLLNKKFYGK

Target: obesity-associated protein (FTO) (human (endogenous in MHCC97H)) (UniProt Q9C0B1)
Experiment: affinity purification with mass spectrometry; IP with an antibody against FTO from lysates of MHCC97H cells with AMD1 knock-down and control cells; mass spectrometry with open search strategy and Mascot search engine

Ras GTPase-activating-like protein 1 (IQGAP1) (from UniProt P46940 1-1657)
binding: binds
